The text below walks through data of the supplement of paper PMC5949888.

Most values lie at the floor of the assay. Slopes are relative: functional sequences can read slightly below zero.

The series deals with Saccharomyces cerevisiae PS128 hsf1 delta, HSF1(1-493) fusion. The experiment in a line: growth estimate (transactivation domain function in HSF1 fusion, heat-shock survival) (a.u. (slope of normalised read count over time)); higher = stronger growth at 37°C, i.e. more transactivation activity. The conditions noted are these: library: random library.
On to CAVVSGLYIDWLNVDPGQEG, for which the growth estimate was less than -0.25.

Consider GFHI, for which the growth estimate was less than -0.25.

Regarding EANQAVEHDGGSWIPHLFRT, the growth estimate is less than -0.25.

For the substance LFV, the growth estimate is less than -0.25.

Regarding DKVQCRVRLDYYPYSRLSEL, the growth estimate was less than -0.25.

As to PGP, the growth estimate was less than -0.25.

In the case of LCGSGYGDSARVRATRCRCA, the growth estimate is less than -0.25.

For KRSCFTMEVAGSRAGQSGPI, the growth estimate was less than -0.25.

Take LGSYRYELGRGCGNSFHSSL: the growth estimate was less than -0.25.

Turning to DLGKAIEVGRCAREDHLWGF, the growth estimate is less than -0.25.

As for WRPRTCDAAPGPIHGLHTCR, the growth estimate is less than -0.25.

Take TIFQMLRNLKFVLVEESESC: the growth estimate was less than -0.25.

Consider RNGARGLMSGSHNQPPQGHR, for which the growth estimate was -0.245.

As to GRCRCPAC, the growth estimate was less than -0.25.

YSQRWCDD: the growth estimate was less than -0.25.

For the substance PLSGLQQVRSVWQCCSLQSA, the growth estimate was less than -0.25.

LAQ: the growth estimate was less than -0.25.

Turning to RTGRVSRVRSRLSSSDGRQR, the growth estimate is less than -0.25.

As for WGPPVGPTCQ, the growth estimate was less than -0.25.

On to HIVPQRDSHTDVQKPWLK, for which the growth estimate was less than -0.25.

Regarding RPEHTNGDRRDGFWG, the growth estimate is less than -0.25.

ANGAPK: the growth estimate is less than -0.25.

As to SISLLSYSLLPSPSLESGPA, the growth estimate is less than -0.25.

Turning to AHVRIHASKLGVTSN, the growth estimate was less than -0.25.

For NGEL, the growth estimate was less than -0.25.

Turning to ADFDAGSGDCE, the growth estimate was less than -0.25.

In the case of RFWEGGGNRKVRRVARLFQD, the growth estimate is less than -0.25.

In the case of STFQFGLTDTCYHLMTTSKR, the growth estimate is -0.248.

As for RQIHPPRPKKT, the growth estimate was less than -0.25.

With LVGST, the growth estimate is less than -0.25.

Take PFTLWRRNVLRAEPKRISRS: the growth estimate is less than -0.25.

On to TRRHVKTTKKSAVRNSSRR, for which the growth estimate is less than -0.25.

As to HRQPMLAWSLMTNFSLTILL, the growth estimate was less than -0.25.

On to VLATGRLTKILFPKDPLLLP, for which the growth estimate is less than -0.25.

DFYDTKSLLIPLILKDRLLS: the growth estimate was less than -0.25.

With RVVGGIRGEGVGERGIRVRV, the growth estimate was less than -0.25.

For the substance LCPCCTSCGSAVRTQRKPRS, the growth estimate is less than -0.25.

For HKRCSDLLCGCGRLAQQGS, the growth estimate is less than -0.25.

LRRRPGV: the growth estimate is less than -0.25.

Regarding YHNRGITNND, the growth estimate was less than -0.25.

On to DRGTQHWPDSGR, for which the growth estimate is 0.044.

Take SPRCHMATHLPPLHINSWRL: the growth estimate is less than -0.25.

Consider ATPYGVGGPKAGI, for which the growth estimate is less than -0.25.

Take WELSIECSNRSYSVPASTGI: the growth estimate is -0.246.

Take SIEDIGSQGLSSDVGSGGTS: the growth estimate is less than -0.25.

For the substance LAGYGCESACQSEGTHPARC, the growth estimate is less than -0.25.

As to EEKRRRARTEVTLRVTGEGR, the growth estimate was less than -0.25.

Turning to RERINDWPWTPKAVIRVGKP, the growth estimate is less than -0.25.

Consider LDQPVISWIFELPGRRGQRV, for which the growth estimate was less than -0.25.

SPQLLCKLAASRAGEEKLGA: the growth estimate is less than -0.25.

Consider PCDSCLAKNGHGQTPRRLNK, for which the growth estimate was -0.245.

Regarding YILYMRRLC, the growth estimate was less than -0.25.

With YERLE, the growth estimate is less than -0.25.

With GWYSAHMGRVIIHWFWPY, the growth estimate was less than -0.25.

Turning to RCSSVST, the growth estimate was less than -0.25.

Regarding CATAFSSLHRVRR, the growth estimate is less than -0.25.

Regarding VAESFLGRLHPIDVTCSLPR, the growth estimate is less than -0.25.

In the case of PREMKGAQEIGDH, the growth estimate was less than -0.25.

With VVIR, the growth estimate is less than -0.25.

As to HWICTERKAVVPWVRIPC, the growth estimate is less than -0.25.

On to TIYRHSNLPSDEGRTCVLQG, for which the growth estimate was less than -0.25.

With SIKLGAPE, the growth estimate was less than -0.25.

Take SAAWIYIYPSICQGLRGARW: the growth estimate is less than -0.25.

Turning to EVKQTPTADKVSAGCERQGT, the growth estimate was -0.241.

For HSSTFGYQLVYSGGIGPLTR, the growth estimate was less than -0.25.

As for GPHHRINKSAYSE, the growth estimate was less than -0.25.

For PEQGWTKFGVQNRPNFSQKV, the growth estimate is less than -0.25.

On to LVLHKGLRAPLA, for which the growth estimate was less than -0.25.

CIAGHAECSVEKARPGRETP: the growth estimate was -0.205.

CLFLGDRVVVRSRKPSGWLC: the growth estimate was less than -0.25.

Consider PVAMSRGVWASGPRAYAVYD, for which the growth estimate was less than -0.25.

As to LQKAE, the growth estimate was less than -0.25.

With PICQCLQQEVYSPINGSNFA, the growth estimate was less than -0.25.

In the case of RLSDRPPGRDLN, the growth estimate is less than -0.25.

With KRHRIQTAEDSHAWHTAFVR, the growth estimate is less than -0.25.

As for YGIRTVYFRPEPRIGCIAPK, the growth estimate is less than -0.25.

In the case of CRVGVIRRSGRVDVARDSVS, the growth estimate was less than -0.25.

Take LAYESDSRKLWNKVEFSGAR: the growth estimate was less than -0.25.

As for RTL, the growth estimate was less than -0.25.

For CPVEARLHQISRWAAEQTTI, the growth estimate is less than -0.25.

Regarding VTKYIHSPSLTSPLWLYVSA, the growth estimate was less than -0.25.

As for LSLLG, the growth estimate was less than -0.25.

As for SYYLGGFFSVWMAILERVSA, the growth estimate is less than -0.25.

KYTLARRAGETNYDKAL: the growth estimate is less than -0.25.

Take PGHQTPHRDFVW: the growth estimate is -0.0948.

For the substance VNPYNSASYAQDWQDCAIFR, the growth estimate is less than -0.25.

On to LKARQPEVFEQVILELPHVK, for which the growth estimate was less than -0.25.

On to RDQVKSREMPLSFPDSSLT, for which the growth estimate was less than -0.25.

For the substance TCCGKLTD, the growth estimate was -0.246.

As for TGVR, the growth estimate was less than -0.25.

As for QGPA, the growth estimate was less than -0.25.

Turning to GDIQVWKSIPLVGGN, the growth estimate is less than -0.25.

With FGGTICVGQGFADVMYRIRP, the growth estimate is less than -0.25.

For GIGGDVEACLRELVSHQAIA, the growth estimate is less than -0.25.

For NPSWKCTDFEKSALVPGSLG, the growth estimate is less than -0.25.

As to RFVTSHRRVCDGQGLRIQTP, the growth estimate was less than -0.25.

In the case of VNGGVT, the growth estimate was less than -0.25.

As to GTCLPESFWAHAARSDRSGS, the growth estimate is less than -0.25.

As to YSNAVEQSGSSSGCN, the growth estimate was less than -0.25.

SRYGPQV: the growth estimate is less than -0.25.

Consider TLRGEDAKLFRTNVCPLVSP, for which the growth estimate is less than -0.25.

With SREG, the growth estimate was less than -0.25.

As to TKTRLGARGVAVPAARKPIR, the growth estimate is less than -0.25.

Regarding GVKFVCSFVF, the growth estimate was less than -0.25.

In the case of SGDIAT, the growth estimate was less than -0.25.

Take QTSIHSQGLPVGGG: the growth estimate was less than -0.25.

For NENEVILSNVVRGTGTHTGA, the growth estimate was less than -0.25.

As for KLGRRAARLRA, the growth estimate is -0.194.

Consider RKGQSINVWE, for which the growth estimate was less than -0.25.

Take LQAVRGHPSTGFICASHGSC: the growth estimate was less than -0.25.

Turning to DSNRAGTFKSESVSSLLQPR, the growth estimate was less than -0.25.

For HTATAVRRVLSKRQALERGC, the growth estimate is less than -0.25.

ARDKYIDALARGVLLYDERT: the growth estimate is less than -0.25.
